Assay results from patent US20130012451A1, “COMPOSITIONS AND METHODS FOR INHIBITING MMP-9-MEDIATED CELL MIGRATION” (The Research Foundation of State University of New York, priority 2009, published 2013).
No constants are given. Whether binding was seen depends on the method and setting. Binding seen in cells or lysates may run through a third protein. Some results given as binding are weak or reduced against the parent protein; the word gives no strength. Values belong to the substance of their own block, whether it stands above or below them.

Amino acid sequences for entries named in this document (tags omitted). A change or cut given only in a name is not applied to a line headed by its entry. Chains listed by the source or under a name are the forms on record and can include a tag or linker. Residues count along the entry.
CD44 (P16070, form named): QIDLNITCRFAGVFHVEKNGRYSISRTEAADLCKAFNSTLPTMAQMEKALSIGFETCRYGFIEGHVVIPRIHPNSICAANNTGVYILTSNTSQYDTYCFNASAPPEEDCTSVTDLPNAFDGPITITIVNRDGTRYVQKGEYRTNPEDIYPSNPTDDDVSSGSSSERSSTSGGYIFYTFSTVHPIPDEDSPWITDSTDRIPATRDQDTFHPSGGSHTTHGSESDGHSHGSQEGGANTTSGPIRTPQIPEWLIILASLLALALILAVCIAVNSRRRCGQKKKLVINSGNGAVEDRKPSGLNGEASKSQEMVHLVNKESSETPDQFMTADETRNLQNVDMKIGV
UniProt P14780: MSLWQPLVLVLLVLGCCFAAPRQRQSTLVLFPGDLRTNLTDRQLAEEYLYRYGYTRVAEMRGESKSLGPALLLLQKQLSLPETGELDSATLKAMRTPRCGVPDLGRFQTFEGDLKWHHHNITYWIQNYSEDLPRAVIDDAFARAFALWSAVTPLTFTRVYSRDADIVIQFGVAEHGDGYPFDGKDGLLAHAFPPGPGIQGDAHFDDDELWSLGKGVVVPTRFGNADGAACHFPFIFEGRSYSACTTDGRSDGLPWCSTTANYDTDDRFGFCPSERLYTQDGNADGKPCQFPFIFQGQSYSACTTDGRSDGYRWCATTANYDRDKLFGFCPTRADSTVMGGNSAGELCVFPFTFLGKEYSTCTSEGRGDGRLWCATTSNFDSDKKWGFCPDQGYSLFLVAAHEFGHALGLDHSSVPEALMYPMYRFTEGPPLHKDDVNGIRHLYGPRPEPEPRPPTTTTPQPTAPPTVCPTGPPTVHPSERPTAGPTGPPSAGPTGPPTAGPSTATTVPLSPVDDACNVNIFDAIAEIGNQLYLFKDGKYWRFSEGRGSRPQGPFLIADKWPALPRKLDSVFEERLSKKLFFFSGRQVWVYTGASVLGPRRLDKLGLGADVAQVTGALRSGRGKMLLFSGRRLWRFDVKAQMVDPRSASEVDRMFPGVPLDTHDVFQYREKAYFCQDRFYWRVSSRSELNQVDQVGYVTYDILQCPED
UniProt P01033, residues 24-207: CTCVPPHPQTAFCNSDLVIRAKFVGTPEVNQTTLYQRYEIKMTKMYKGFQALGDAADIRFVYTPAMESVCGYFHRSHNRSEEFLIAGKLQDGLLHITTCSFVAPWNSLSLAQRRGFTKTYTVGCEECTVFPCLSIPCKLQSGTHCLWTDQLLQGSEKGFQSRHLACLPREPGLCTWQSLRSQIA

Assays:
[1] = biological target: CD44 (UniProt P16070); assay: co-immunoprecipitation, COS-1 cells co-expressing CD44 and the mutant
[2] = biological target: CD44 (UniProt P16070); assay: co-immunoprecipitation, anti-CD44 antibody for IP and anti-MMP-9 antibody for IB (FIG. 5A)
[3] = biological target: CD44 (UniProt P16070); assay: co-immunoprecipitation, MMP-9 transfected COS-1 cells
[4] = biological target: Matrix Metalloproteinase-9 (MMP-9), wild type (Homo sapiens (Human)) (UniProt P14780); assay: co-immunoprecipitation (FIG. 3B)
[5] = biological target: Matrix Metalloproteinase-9 (MMP-9), wild type (Homo sapiens (Human)) (UniProt P14780); assay: co-immunoprecipitation, transfected COS-1 cells
[6] = biological target: Matrix Metalloproteinase-9 (MMP-9), wild type (Homo sapiens (Human)) (UniProt P14780); assay: reciprocal co-immunoprecipitation (FIG. 7E)

- binding [1]: binds
Substance: MMP-9/IVS4 chimera (MMP-9 with the outermost β-strand of blade IV of the PEX domain, NQVDQVGY, replaced by MMP-2 KSVKFGS) (from UniProt P14780 20-707) (enzyme)

- binding [2]: binds
- binding [3]: binds
Substance: Matrix Metalloproteinase-9 (MMP-9), wild type (from UniProt P14780 20-707) (enzyme)

- binding [4]: binds
- binding [5]: binds
- binding [6]: binds
Substance: TIMP-1 (from UniProt P01033 24-207)
